The campaign covered roughly 310,000 compounds. About 17,000 (5.5%) were called active. The shares of active, inactive and inconclusive entries below differ from those in the screen. Calls come from the whole dose curve; as a rule, active = well fitted inhibition curve with a large enough effect; inconclusive = small, poorly fitted or top-dose-only effect, or effect the other way; inactive = no such curve, though single readings can be large or run the other way. Where the call is inconclusive, the potency comes from a doubtful curve fit.
target: Nuclear receptor ROR-gamma (Mus musculus) (UniProt P51450); assay: qHTS for inhibitors of ROR gamma transcriptional activity; conditions: Drosophila S2 Gal4-RORgamma UAS-luciferase reporter, 20 h; activity change, negative = inhibition: at 53.6 µM (top of the series); note: nearly all actives have a fitted effect of over 60% in size
How it was run: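 Schneider cells (Drosophila), stable Gal4 DBD–ROR gamma + UAS-luc; 1 hr cmpd preincubation; Cu2+ induction 700 uM final; 20 hr ambient; luminescence.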
% is set by controls: 0 for no effect and ±100 for the full control effect; potency is the fitted concentration of half-maximal effect.

Chains of the proteins cited; added tags and fusions are not shown. Lines headed by an entry give the natural chain unless they say otherwise; changes in a name come on top.
UniProt P51450: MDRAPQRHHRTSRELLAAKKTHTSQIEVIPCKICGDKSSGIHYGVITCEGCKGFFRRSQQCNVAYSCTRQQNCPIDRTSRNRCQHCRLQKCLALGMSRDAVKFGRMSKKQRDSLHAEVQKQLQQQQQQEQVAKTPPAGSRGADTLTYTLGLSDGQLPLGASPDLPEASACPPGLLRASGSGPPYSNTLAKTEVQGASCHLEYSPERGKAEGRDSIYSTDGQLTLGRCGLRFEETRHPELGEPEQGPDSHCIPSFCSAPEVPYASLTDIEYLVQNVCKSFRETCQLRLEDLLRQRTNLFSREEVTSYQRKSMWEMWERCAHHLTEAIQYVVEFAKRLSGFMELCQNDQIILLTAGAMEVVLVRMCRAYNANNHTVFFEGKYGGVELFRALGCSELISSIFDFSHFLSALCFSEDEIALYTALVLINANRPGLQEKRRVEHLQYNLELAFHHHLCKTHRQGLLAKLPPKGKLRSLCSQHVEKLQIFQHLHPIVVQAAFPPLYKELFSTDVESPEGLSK

SMILES	activity change, negative = inhibition	Potency
C=C(C)C(=O)Nc1cccc(C2=NOC3(C2)C[C@H](C(N)=O)N(C(=O)CC#N)C3)c1 (stereo partly drawn)	inactive: 4.5%	–
Cc1ccc(C(C(=O)NC2CCCCC2)N(Cc2ccco2)C(=O)Cc2c[nH]c3ccccc23)o1 (stereo not drawn)	inactive: 0.923%	–
O=C1C=C(Nc2cccc3cccnc23)c2ccccc2C1=O	–	active: 10 µM
Cc1cc(C)c(NC(=O)CSc2nnc(-c3ccco3)n2N)c(C)c1	–	inconclusive: 0.0891 µM [activator, full curve, poor fit]
c1ccc(-c2cc(N3CCOCC3)nc3ccccc23)cc1	inactive: 34.7%	–
CCc1ccccc1OCC(=O)Nc1nc(-c2cccnc2)cs1	–	active: 3.16 µM
CCC(=O)Nc1ccc(C(=O)N/N=C/c2ccc([N+](=O)[O-])cc2)cc1	–	inconclusive: 22.4 µM [activator, single point]
COC(=O)c1cc(OC)c(OC)cc1NC(=S)NC(=O)c1ccco1	–	active: 8.91 µM
O=C(O)C1CCCCC1C(=O)NCc1cn2ccccc2n1 (stereo not drawn)	–	inconclusive: 0.141 µM [inhibitor, partial curve, poor fit]
CC(=O)c1cc(CN2CCN(Cc3ccccc3)C(CCO)C2)cs1 (stereo not drawn)	inactive: -4.01%	–
CCn1c(C(=O)OC)cc2c1ccn2-c1ccc(F)cc1	–	inconclusive: 17.8 µM [activator, partial curve]
Cc1cc(Nc2ccc(Br)cc2F)n2nc(C)nc2n1	–	active: 3.16 µM
COCCn1c(SCc2nnc(-c3ccccc3)o2)nc2sc3c(c2c1=O)CCC3	–	inconclusive: 35.5 µM [inhibitor, single point]
COc1ccc(/C(N)=N/OC(=O)/C=C/c2ccccc2)cc1	inactive: -8.78%	–
Cc1cc(NC(=O)[C@H](C)NC(=O)c2ccco2)ccc1Br	inactive: 2.23%	–
O=C1C(=O)N(Cc2ccc(Cl)c(Cl)c2)c2ccccc21	–	inconclusive: 35.5 µM [inhibitor, single point]
COc1ccc(-c2ccnc3c(C#N)cnn23)cc1	–	inconclusive: 35.5 µM [activator, partial curve]
Cc1cc(NS(=O)(=O)c2ccc(NC(=O)CCCOc3cccc(C)c3C)cc2)no1	–	inconclusive: 10 µM [activator, partial curve]
Cc1ccc(NC(=O)CSc2nnc(-c3n[nH]c4ccccc34)n2-c2ccccc2)c(C)c1	–	inconclusive: 14.1 µM [activator, partial curve]
CCOC(=O)c1ccc(NCc2nc3ccccc3[nH]2)cc1	–	inconclusive: 3.98 µM [activator, single point]
Cc1cccc(Oc2ccc(NC(=O)c3ccccc3C(=O)O)cc2)c1C	inactive: 17.4%	–
N#C/C(=C\c1cccnc1)c1ccc([N+](=O)[O-])cc1	–	inconclusive: 35.5 µM [inhibitor, single point]
Cc1ccc(NC(=O)c2scc3c2CCCC3)cc1	–	inconclusive: 11.2 µM [inhibitor, partial curve, poor fit]
Cn1c(CNc2ccc(Cl)cc2)nnc1SCc1ccccc1	–	inconclusive: 17.8 µM [activator, single point]

SMILES	activity change, negative = inhibition	Potency
O=C(Nc1ccc(Nc2ccccc2)cc1)c1ccc(Br)cc1	–	inconclusive: 35.5 µM [inhibitor, single point]
CO[C@@H]1COC(=O)C/C=C\[C@@H](C)COC(=O)[C@H](Cc2ccccc2)NC(=O)C/C=C\[C@H]1C	inactive: 9.97% [at 10 µM]	–
COc1ccccc1N1CCN(C(=O)CSc2ncnc3scc(-c4ccccc4)c23)CC1	inactive: 38.9%	–
CCCS(=O)(=O)c1c(S(=O)(=O)CCC)c2c(C)cccn2c1C(N)=O	inactive: 17.8%	–
CS(=O)(=O)N1CCC2(CCCN(C(=O)Nc3cccc(C#N)c3)C2)CC1	inactive: -0.138%	–
CCCCC#CC1C=CC(OC(C)=O)C(COC(C)=O)O1 (stereo not drawn)	–	inconclusive: 3.55 µM [inhibitor, single point]
COc1cc2c(cc1OC)n(CC(=O)NC1CCCCCC1)n1c(C)cc(=O)nc21	inactive: 10.3%	–
S=C1NC2=C(CCCC2=C2SCCCS2)C(c2ccccc2)N1 (stereo not drawn)	–	inconclusive: 6.31 µM [inhibitor, full curve, poor fit]
O=C(CCn1cnnn1)N1CCCC(Nc2ccc(F)c(F)c2)C1 (stereo not drawn)	inactive: -1.51%	–
CC(=O)Nc1nc(C2COc3ccccc3O2)cs1 (stereo not drawn)	–	active: 12.6 µM
O=C(NCCCN1CCCC1=O)c1ccc(OC(F)(F)F)cc1	inactive: 11.3%	–
CC(C)(C)OC(=O)CC[C@@H](C(=O)N1CCN(C(=O)OC(C)(C)C)CC1)n1cc(C(CO)NC(=O)OC(C)(C)C)nn1 (stereo partly drawn)	inactive: -11.1%	–
N#C/C(=C\c1ccc(C#N)cc1)C(=O)c1ccccc1	–	inconclusive: 35.5 µM [inhibitor, single point]
CC(C)Nc1nc(NC(C)C)nc(N(C#N)CCOc2ccc(Cl)cc2Cl)n1	–	inconclusive: 6.31 µM [activator, partial curve]
COc1ccc(C2CC(c3ccccc3)=NN2c2ccc(/C=N/NC(=O)c3ccncc3)cc2)cc1 (stereo not drawn)	–	active: 3.16 µM
Cc1cc2c(cc1C)-c1nnnn1C(C)(C)C2	inactive: 15.1%	–
O=S1(=O)c2cccc3cccc(c23)N1Cc1nnc(-c2ccccc2Br)o1	–	inconclusive: 20 µM [activator, single point]
COc1ccccc1CNC(=O)[C@@H]1CCCN1C(=O)[C@@H]1Cc2ccccc2CN1C(=O)OC(C)(C)C	inactive: 33.9%	–
CCCCNc1nnc(SCC(=O)c2c[nH]c3ccccc23)s1	–	inconclusive: 31.6 µM [activator, single point]
CCN(CC)S(=O)(=O)c1cc(C(=O)Nc2ccccn2)ccc1C	–	inconclusive: 0.794 µM [activator, full curve, poor fit]
Cn1c(=S)n(/N=C/c2ccc3c(c2)OCO3)c2ccccc21	–	active: 11.2 µM
CC(=O)N1c2ccc(S(=O)(=O)NCCc3ccc(S(N)(=O)=O)cc3)cc2CC1C (stereo not drawn)	inactive: 10.6%	–
COc1cc(/C=N/N=C(/N)c2nonc2N)cc(Br)c1OCc1ccccc1C	–	inconclusive: 14.1 µM [inhibitor, single point]
COc1ccc(-c2cc(C3CC3)nc(SCC(=O)c3cccs3)c2C#N)cc1	–	inconclusive: 8.91 µM [inhibitor, partial curve]

Exported in markdown: entries from further up

| SMILES | activity change, negative = inhibition | Potency |
| --- | --- | --- |
| CC(=O)Nc1nc(C2COc3ccccc3O2)cs1 (stereo not drawn) | – | active: 12.6 µM |
| O=C(NCCCN1CCCC1=O)c1ccc(OC(F)(F)F)cc1 | inactive: 11.3% | – |
| CC(C)(C)OC(=O)CC[C@@H](C(=O)N1CCN(C(=O)OC(C)(C)C)CC1)n1cc(C(CO)NC(=O)OC(C)(C)C)nn1 (stereo partly drawn) | inactive: -11.1% | – |
| N#C/C(=C\c1ccc(C#N)cc1)C(=O)c1ccccc1 | – | inconclusive: 35.5 µM [inhibitor, single point] |
| CC(C)Nc1nc(NC(C)C)nc(N(C#N)CCOc2ccc(Cl)cc2Cl)n1 | – | inconclusive: 6.31 µM [activator, partial curve] |
| COc1ccc(C2CC(c3ccccc3)=NN2c2ccc(/C=N/NC(=O)c3ccncc3)cc2)cc1 (stereo not drawn) | – | active: 3.16 µM |
| Cc1cc2c(cc1C)-c1nnnn1C(C)(C)C2 | inactive: 15.1% | – |
| O=S1(=O)c2cccc3cccc(c23)N1Cc1nnc(-c2ccccc2Br)o1 | – | inconclusive: 20 µM [activator, single point] |
| COc1ccccc1CNC(=O)[C@@H]1CCCN1C(=O)[C@@H]1Cc2ccccc2CN1C(=O)OC(C)(C)C | inactive: 33.9% | – |
| CCCCNc1nnc(SCC(=O)c2c[nH]c3ccccc23)s1 | – | inconclusive: 31.6 µM [activator, single point] |
| CCN(CC)S(=O)(=O)c1cc(C(=O)Nc2ccccn2)ccc1C | – | inconclusive: 0.794 µM [activator, full curve, poor fit] |
